# Results from one PubChem assay

Data taken from PubChem BioAssay AID1053133, deposited by Broad Institute (2014).

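Plate-reader measure of the Venus reporter marking one vaccinia stage in infected cells (the cell line is not named here); read time unknown.
The test concentration is not given here.
Percent change in Venus reporter signal; lower (more negative) values mean stronger inhibition of that viral stage.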

Values are in %.
The controls that fix the scale are not given here.
Common to all entries: measured here: Venus reporter, other viral stage.
Part of the compounds only, not a random draw; the main read-out is not listed here.

O=C(c1ccc(F)cc1)N1CCCCN2[C@H](CO)[C@H](c3ccc(-c4ccccc4)cc3)[C@H]2C1 read activity change (Venus) -57.46%.
O=S(=O)(c1ccccc1F)N1CC[C@@H]2[C@H](CO)Nc3ccc(-c4ccc(F)cc4)cc3[C@@H]21 read activity change (Venus) -51.99%.
COc1ccc(CN(C)C[C@@H]2OCCCC[C@@H](C)Oc3ccc(NS(=O)(=O)c4ccc(C)cc4)cc3C(=O)N([C@H](C)CO)C[C@H]2C)cc1 read activity change (Venus) -41.97%.
Cc1ccc(S(=O)(=O)Nc2ccc3c(c2)C(=O)N([C@H](C)CO)C[C@H](C)[C@@H](CN(C)S(=O)(=O)c2cccs2)OCCCC[C@H](C)O3)cc1 read activity change (Venus) -36.1%.
CN1c2ccc(-c3ccc(C#N)cc3)cc2[C@@H]2[C@@H](CCN2C(=O)Nc2ccccc2F)[C@@H]1CO read activity change (Venus) -24.53%.
CCCC#Cc1ccc([C@H]2[C@@H](CO)N3C(=O)CN(S(=O)(=O)Cc4ccccc4)C[C@H]23)cc1 read activity change (Venus) -67.18%.
CCC(=O)N(C)C[C@H]1Oc2cc(C#Cc3ccccc3)ccc2S(=O)(=O)N([C@H](C)CO)C[C@H]1C read activity change (Venus) -70.79%.
C[C@@H]1CN([C@@H](C)CO)C(=O)c2cccc(NC(=O)C3CCCCC3)c2O[C@H]1CN(C)Cc1ccc(C(F)(F)F)cc1 read activity change (Venus) -48.64%.
O=C1N(CCS(=O)(=O)c2ccccc2)Cc2ccccc2C[C@@]12COC(c1ccc(OCCCO)cc1)=N2 read activity change (Venus) -62.42%.
Cc1ccc(-c2cnc3c(c2)C(=O)N([C@@H](C)CO)C[C@H](C)[C@@H](CN(C)C(=O)Cc2ccncc2)O3)cc1 read activity change (Venus) -41.44%.
C[C@H]1CN([C@@H](C)CO)S(=O)(=O)c2ccc(C#Cc3ccccc3F)cc2O[C@H]1CN(C)C(=O)c1ccc2c(c1)OCO2 read activity change (Venus) -33.31%.
C[C@H]1CN([C@@H](C)CO)C(=O)c2c(c3ccccc3n2C)-c2ccccc2CO[C@H]1CN(C)C(=O)Nc1ccccc1C(F)(F)F read activity change (Venus) -38.19%.
COc1cccc(-c2ccc3c(c2)[C@H]2[C@H](CCN2C(=O)c2ccc(F)cc2)[C@@H](CO)N3)c1 read activity change (Venus) -34.34%.
C[C@H](CO)N1C[C@H](C)[C@H](CN(C)S(=O)(=O)c2ccc(Cl)cc2)OCCCC[C@H](C)Oc2ccc(NS(C)(=O)=O)cc2C1=O read activity change (Venus) -19.52%.
C[C@H](CO)N1C[C@H](C)[C@@H](CN(C)C(=O)c2ccc3c(c2)OCO3)Oc2cc(C#Cc3ccccc3F)ccc2S1(=O)=O read activity change (Venus) -26.36%.
COc1ccc(CNC(=O)c2cc3c(c(-c4cccc(-c5cccc(C#N)c5)c4)n2)[C@H](CCO)N([S@@](=O)C(C)(C)C)C3)cc1 read activity change (Venus) -18.71%.
O=C(C[C@@H]1C[C@H]2c3cc(NS(=O)(=O)c4ccc(F)cc4)ccc3O[C@H]2[C@H](CO)O1)NCc1ccc(Oc2ccccc2)cc1 read activity change (Venus) -88.61%.
C[C@@H]1CCCCO[C@@H](CN(C)Cc2ccc(C(F)(F)F)cc2)[C@H](C)CN([C@H](C)CO)C(=O)c2cc(NS(=O)(=O)c3ccc(F)cc3)ccc2O1 read activity change (Venus) -85.71%.
C[C@@H]1CN([C@H](C)CO)C(=O)c2cccc(NC(=O)Nc3cccc4ccccc34)c2O[C@@H]1CN(C)C(=O)Nc1ccc(C(F)(F)F)cc1 read activity change (Venus) -36.23%.
C[C@@H]1CN([C@H](C)CO)C(=O)Cc2cc(NC(=O)C3CC3)ccc2O[C@@H]1CN(C)Cc1ccc(Cl)c(Cl)c1 read activity change (Venus) -46.75%.
C[C@H]1CCCCO[C@@H](CN(C)C(=O)NC2CCCCC2)[C@@H](C)CN([C@@H](C)CO)C(=O)c2cc(NC(=O)C3CCCCC3)ccc2O1 read activity change (Venus) -40.31%.
C[C@@H]1CCCCO[C@H](CN(C)C(=O)c2ccccc2)[C@H](C)CN([C@H](C)CO)C(=O)c2cc(NS(=O)(=O)c3ccc(Cl)cc3)ccc2O1 read activity change (Venus) -53.17%.
COCC#Cc1ccc2c(c1)O[C@H](CN(C)Cc1ccc(F)cc1)[C@H](C)CN([C@@H](C)CO)S2(=O)=O read activity change (Venus) -31.42%.
O=C1N(Cc2ccccc2)Cc2ccccc2[C@H]2OC(c3ccc(OCCCO)cc3)=N[C@@]12Cc1ccccc1 read activity change (Venus) -49.45%.
C[C@H](CO)N1C[C@H](C)[C@H](CN(C)C(=O)C2CCCCC2)OCCCC[C@H](C)Oc2ccc(NS(=O)(=O)c3ccccc3)cc2C1=O read activity change (Venus) -45.14%.
C[C@H](CO)N1C[C@H](C)[C@H](CN(C)C(=O)CN(C)C)Oc2cc(C#Cc3ccc(F)cc3)ccc2S1(=O)=O read activity change (Venus) -46.21%.
C[C@H](CO)N1C[C@H](C)[C@@H](CN(C)Cc2ccc(Cl)c(Cl)c2)OCCCC[C@H](C)Oc2ccc(NC(=O)C3CCCCC3)cc2C1=O read activity change (Venus) -20.42%.
Cc1ccc(S(=O)(=O)N[C@@H]2C=C[C@H](CC(=O)N3CCC(Cc4ccccc4)CC3)O[C@@H]2CO)cc1 read activity change (Venus) -34.37%.
C[C@@H]1CCCCO[C@@H](CN(C)S(=O)(=O)c2ccccc2)[C@H](C)CN([C@H](C)CO)C(=O)c2cc(NS(=O)(=O)c3ccc(F)cc3)ccc2O1 read activity change (Venus) -60.91%.
C[C@@H]1CCCCO[C@@H](CN(C)Cc2ccc(Cl)c(Cl)c2)[C@H](C)CN([C@H](C)CO)C(=O)c2cc(NS(=O)(=O)c3ccccc3)ccc2O1 read activity change (Venus) -52.39%.
C[C@@H]1CCCCO[C@H](CN(C)Cc2ccccc2)[C@H](C)CN([C@H](C)CO)C(=O)c2cc(NS(=O)(=O)c3ccc(Cl)cc3)ccc2O1 read activity change (Venus) -77.04%.
COc1cccc(S(=O)(=O)N(C)C[C@H]2OCc3ccccc3-c3c(n(C)c4ccccc34)C(=O)N([C@@H](C)CO)C[C@H]2C)c1 read activity change (Venus) -48.44%.
C[C@H]1CN([C@@H](C)CO)C(=O)c2cc(NS(=O)(=O)c3ccccc3)ccc2O[C@@H]1CN(C)Cc1ccc(-c2ccccc2)cc1 read activity change (Venus) -24.43%.
O=S(=O)(c1ccccc1)N1CC[C@H]2[C@H](CO)Nc3ccc(Br)cc3[C@H]21 read activity change (Venus) -29.07%.
C[C@H]1CN([C@@H](C)CO)S(=O)(=O)c2ccc(C#Cc3cccc(F)c3)cc2O[C@@H]1CN(C)C(=O)NC1CCCCC1 read activity change (Venus) -75.66%.
CCC(=O)N(C)C[C@H]1Oc2cc(C#CCC3CCCC3)ccc2S(=O)(=O)N([C@H](C)CO)C[C@H]1C read activity change (Venus) -27.1%.